Measured data: PubChem BioAssay AID720505 (Drosophila RNAi Screening Center, 2013)
The deposit covers about 20,000 reagents; this is an unselected part of those that have a named target and a result. Of all reagents, about 2,100 (10%) were called active. 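Raw plate signals without normalisation; calls rest on control-based scores that were not deposited; replicate 2 separates called from uncalled poorly.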 The numbers tell different reagents against one gene apart. Names joined by + are all predicted targets of the reagent. Not given: the amount of reagent, the time to read-out.

Purpose: 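Knock-downs that reduce calcium influx once internal stores are emptied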 (primary screen)
Cells: Drosophila S2R+ cells
Reagents: long dsRNA against Drosophila genes
Conditions: thapsigargin (2 µM) in calcium-free buffer to empty internal stores, then 2 mM calcium added back
Measurement: 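Fluo-4 signal in 384-well plates read on a FLIPR after thapsigargin (2 µM, calcium-free) store depletion and 2 mM calcium add-back; unnormalised mean endpoint per well; screen run twice, selected wells retested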
Direction: calcium signal and retest calcium signal: higher = more calcium entry after store depletion
Call rule: 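Knock-downs counted as hits when calcium entry dropped relative to STIM1 positive and Rho1 negative controls present on each plate; roughly 1500 genes called, with reductions of differing size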
Meaning of the calls: active = called as lowering calcium entry; inactive = not called

Target gene,reagent,"calcium signal, replicate 1","calcium signal, replicate 2","retest calcium signal, replicate 1","retest calcium signal, replicate 2",Call
POLDIP2,1,98.7,99.9,,,inactive
SamDC,1,96,74.9,,,inactive
Gorab,1,88.3,140,,,inactive
Cpr76Bc,1,101,181,,,inactive
Jhbp1,1,112,145,,,inactive
CG9875,1,83.8,169,,,inactive
CG1958,1,212,105,,,inactive
Tengl3,1,124,225,,,inactive
CG14500,1,153,144,,,inactive
CG1172 + Or83a,1,113,129,,,inactive
CycH,1,91,208,,,inactive
CycH,2,73.2,158,,,inactive
teq,1,96.5,79.4,,,inactive
teq,2,86.5,80.7,,,inactive
teq,3,86.4,101,,,inactive
Lcp1Psi,1,101,108,,,inactive
Frmd5,1,125,194,,,inactive
Hsp70Bc,1,131,93.5,,,inactive
CHES-1-like,1,272,112,,,inactive
CG12817,1,95.3,78.5,,,inactive
Paris,1,102,168,,,inactive
CG43153,1,201,87.1,,,inactive
Ets21C,1,93.9,152,,,inactive
Miox,1,95,104,,,inactive
eEF5,1,66.5,156,,,active
CG14253,1,173,131,,,inactive
CG2694,1,110,144,,,inactive
bbg,1,88.7,162,,,inactive
bbg,2,63.6,182,,,inactive
CG33172,1,164,83.2,,,inactive
CG31404,1,169,188,,,inactive
CG33296,1,101,98.3,,,inactive
tio,1,139,135,,,inactive
CG14566,1,127,183,,,inactive
CG34214,1,195,79.8,,,inactive
Ptp52F,1,99,148,,,inactive
sqz,1,93.4,108,,,active
PK2-R1,1,164,208,,,inactive
CG13038,1,108,184,,,inactive
CG2070,1,137,185,,,inactive
Mgat2,1,109,147,,,inactive

An excerpt of the results above, for reference:
Target gene,reagent,"calcium signal, replicate 1","calcium signal, replicate 2","retest calcium signal, replicate 1","retest calcium signal, replicate 2",Call
CG33172,1,164,83.2,,,inactive
CG31404,1,169,188,,,inactive
CG33296,1,101,98.3,,,inactive
tio,1,139,135,,,inactive
CG14566,1,127,183,,,inactive
CG34214,1,195,79.8,,,inactive
Ptp52F,1,99,148,,,inactive
sqz,1,93.4,108,,,active
PK2-R1,1,164,208,,,inactive

More entries follow.
Target gene,reagent,"calcium signal, replicate 1","calcium signal, replicate 2","retest calcium signal, replicate 1","retest calcium signal, replicate 2",Call
CG42748,1,137,104,,,inactive
CG42748,2,67.6,143,,,active
CG42748,3,149,99.8,,,inactive
CG10332 (retired record) + IM18,1,136,151,,,inactive
Erk7,1,67.2,99.3,,,active
Erk7,2,83.2,116,,,inactive
Erk7,3,123,250,,,inactive
Oatp33Eb,1,117,144,,,inactive
tHMG2,1,164,176,,,inactive
CG4707,1,150,95.6,,,inactive
wda,1,239,109,7434,173,inactive
wda,2,128,234,,,inactive
CG14265,1,70.1,113,,,inactive
CG7488,1,85.3,95.9,,,inactive
Acp1,1,78.5,94,,,active
ihog,1,104,120,,,inactive
CG7275,1,64.6,110,,,active
Cyp9c1,1,181,77.5,,,inactive
Dph3,1,141,98.7,,,inactive
ect,1,94.3,96.4,7433,93.1,inactive
ect,2,110,109,,,inactive
ect,3,98.6,230,,,inactive
yellow-e,1,103,153,,,inactive
CG3257,1,134,90.3,,,inactive
Lsp1gamma,1,156,145,,,inactive
Lsp1beta,1,125,204,,,inactive
sli,1,126,134,,,inactive
sli,2,106,181,,,inactive
CG11356,1,112,111,,,inactive
Pex11c,1,212,112,,,inactive
Cpr65Ax2 + Cpr65Ax1,1,133,108,,,inactive
Cpr65Ax2 + Cpr65Ax1,2,136,110,,,inactive
Psn,1,82.3,111,,,inactive
Cyp6g2,1,118,146,,,inactive
CG11162,1,62.2,98.3,,,active
CG11162,2,94.5,123,,,inactive
CG30172,1,136,105,,,inactive
Sply,1,89.7,162,,,inactive
Xrp1,1,71.3,70.8,,,active
Xrp1,2,101,96.8,,,inactive
gsb,1,57.6,126,,,active
CG10226,1,73.6,102,,,active
